Experimental data: publication PMC6356446
No constants are given. Whether binding was seen depends on the method and setting. Some binding calls cover weakened binding; strength is not graded here.

The chains behind the UniProt entries cited, without tags or fusion partners. Residues count along the entry.
UniProt P08581, residues 25-1390: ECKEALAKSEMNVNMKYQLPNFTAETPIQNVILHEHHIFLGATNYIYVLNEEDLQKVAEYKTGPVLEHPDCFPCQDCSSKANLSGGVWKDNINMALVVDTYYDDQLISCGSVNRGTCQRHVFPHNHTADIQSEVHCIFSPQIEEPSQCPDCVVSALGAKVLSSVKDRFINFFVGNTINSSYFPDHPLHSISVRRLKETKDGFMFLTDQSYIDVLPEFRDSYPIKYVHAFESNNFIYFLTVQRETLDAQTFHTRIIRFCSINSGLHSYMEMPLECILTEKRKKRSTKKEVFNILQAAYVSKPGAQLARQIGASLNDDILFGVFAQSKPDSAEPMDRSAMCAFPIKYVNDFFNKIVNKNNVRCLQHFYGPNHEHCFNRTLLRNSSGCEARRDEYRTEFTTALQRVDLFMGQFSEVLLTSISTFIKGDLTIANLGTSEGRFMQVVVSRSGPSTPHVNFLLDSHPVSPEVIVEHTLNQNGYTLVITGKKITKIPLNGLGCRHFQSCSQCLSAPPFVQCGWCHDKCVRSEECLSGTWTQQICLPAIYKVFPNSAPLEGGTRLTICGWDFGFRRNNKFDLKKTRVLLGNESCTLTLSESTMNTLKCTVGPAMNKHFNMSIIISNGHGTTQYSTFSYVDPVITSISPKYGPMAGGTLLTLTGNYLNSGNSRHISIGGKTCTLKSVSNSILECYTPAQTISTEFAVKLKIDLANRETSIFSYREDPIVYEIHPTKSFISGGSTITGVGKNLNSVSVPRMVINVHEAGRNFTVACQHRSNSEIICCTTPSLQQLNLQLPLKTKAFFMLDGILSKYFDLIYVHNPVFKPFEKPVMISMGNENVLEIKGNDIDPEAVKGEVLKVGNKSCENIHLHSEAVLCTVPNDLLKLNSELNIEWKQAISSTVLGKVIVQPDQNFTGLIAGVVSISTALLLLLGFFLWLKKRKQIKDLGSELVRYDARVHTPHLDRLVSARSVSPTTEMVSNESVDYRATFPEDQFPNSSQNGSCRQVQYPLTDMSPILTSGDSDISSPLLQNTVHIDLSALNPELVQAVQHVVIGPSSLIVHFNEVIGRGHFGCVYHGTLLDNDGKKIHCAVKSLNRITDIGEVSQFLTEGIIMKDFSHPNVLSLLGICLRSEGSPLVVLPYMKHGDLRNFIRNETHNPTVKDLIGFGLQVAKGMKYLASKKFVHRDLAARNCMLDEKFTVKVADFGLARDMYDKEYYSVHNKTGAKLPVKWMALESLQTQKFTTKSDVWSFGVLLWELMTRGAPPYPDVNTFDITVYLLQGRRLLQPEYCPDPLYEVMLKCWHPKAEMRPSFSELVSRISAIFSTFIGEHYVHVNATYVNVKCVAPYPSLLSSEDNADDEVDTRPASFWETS
UniProt P14210, residues 32-728: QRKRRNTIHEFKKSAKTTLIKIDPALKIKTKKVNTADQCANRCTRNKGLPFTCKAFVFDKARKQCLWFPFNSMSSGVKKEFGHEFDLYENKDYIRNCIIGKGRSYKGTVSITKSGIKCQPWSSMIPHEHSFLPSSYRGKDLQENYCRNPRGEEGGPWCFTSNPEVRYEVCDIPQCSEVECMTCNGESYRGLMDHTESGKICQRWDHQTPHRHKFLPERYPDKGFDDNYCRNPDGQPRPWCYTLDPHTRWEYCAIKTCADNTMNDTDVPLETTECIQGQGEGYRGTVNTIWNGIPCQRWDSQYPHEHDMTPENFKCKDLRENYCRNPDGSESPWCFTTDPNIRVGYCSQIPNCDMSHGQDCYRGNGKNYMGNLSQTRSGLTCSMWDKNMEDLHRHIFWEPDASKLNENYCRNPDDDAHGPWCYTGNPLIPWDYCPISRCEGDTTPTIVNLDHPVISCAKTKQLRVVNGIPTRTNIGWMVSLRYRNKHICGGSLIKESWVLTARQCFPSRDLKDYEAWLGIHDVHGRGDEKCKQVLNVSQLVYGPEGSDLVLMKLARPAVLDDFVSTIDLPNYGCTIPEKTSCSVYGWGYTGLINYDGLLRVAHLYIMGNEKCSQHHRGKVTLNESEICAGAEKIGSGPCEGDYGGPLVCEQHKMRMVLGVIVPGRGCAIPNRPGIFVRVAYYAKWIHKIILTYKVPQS

Molecular target: c-Met (human (endogenous in HCC413)) (UniProt P08581)
Experiment: flow cytometry on cells; HCC413 cells treated with EGF-FITC or HGF-FITC alone or with unlabeled LZ-8 for 15 min; fixed; relative mean fluorescence intensity; only the binder purified

FITC-labeled HGF (from UniProt P14210 32-728) (ligand)
binding: binds
